Some of the results follow. Most entries show no effect beyond the scatter of the controls.
The targets below were run with CN[C@@H]1C[C@H]2O[C@@](C)([C@@H]1OC)n1c3ccccc3c3c4c(c5c6ccccc6n2c5c31)C(=O)NC4 [staurosporine] (assay: log2 fold change of pooled soluble protein (PISA), ligand vs vehicle (log2 ratio); higher = more thermally stabilized). Settings: ligand concentration: 20 uM; assay format: PISA pool 52.9/55.5/58.6 C.

Sequences of proteins named here, by UniProt entry; tags and fusion partners are left off. A change or cut given only in a name is not applied to a line headed by its entry.
UniProt Q8BG81: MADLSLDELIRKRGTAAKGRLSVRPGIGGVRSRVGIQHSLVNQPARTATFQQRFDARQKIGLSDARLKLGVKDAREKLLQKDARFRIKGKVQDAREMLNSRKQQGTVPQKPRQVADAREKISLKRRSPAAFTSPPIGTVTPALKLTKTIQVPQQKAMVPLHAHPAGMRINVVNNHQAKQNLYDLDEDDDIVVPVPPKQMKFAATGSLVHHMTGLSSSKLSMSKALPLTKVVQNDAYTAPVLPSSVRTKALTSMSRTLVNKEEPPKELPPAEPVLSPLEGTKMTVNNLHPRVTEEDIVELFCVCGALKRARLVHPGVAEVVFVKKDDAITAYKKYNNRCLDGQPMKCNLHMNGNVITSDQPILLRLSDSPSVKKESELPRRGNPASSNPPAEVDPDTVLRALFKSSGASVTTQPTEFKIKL
UniProt Q6PGL7: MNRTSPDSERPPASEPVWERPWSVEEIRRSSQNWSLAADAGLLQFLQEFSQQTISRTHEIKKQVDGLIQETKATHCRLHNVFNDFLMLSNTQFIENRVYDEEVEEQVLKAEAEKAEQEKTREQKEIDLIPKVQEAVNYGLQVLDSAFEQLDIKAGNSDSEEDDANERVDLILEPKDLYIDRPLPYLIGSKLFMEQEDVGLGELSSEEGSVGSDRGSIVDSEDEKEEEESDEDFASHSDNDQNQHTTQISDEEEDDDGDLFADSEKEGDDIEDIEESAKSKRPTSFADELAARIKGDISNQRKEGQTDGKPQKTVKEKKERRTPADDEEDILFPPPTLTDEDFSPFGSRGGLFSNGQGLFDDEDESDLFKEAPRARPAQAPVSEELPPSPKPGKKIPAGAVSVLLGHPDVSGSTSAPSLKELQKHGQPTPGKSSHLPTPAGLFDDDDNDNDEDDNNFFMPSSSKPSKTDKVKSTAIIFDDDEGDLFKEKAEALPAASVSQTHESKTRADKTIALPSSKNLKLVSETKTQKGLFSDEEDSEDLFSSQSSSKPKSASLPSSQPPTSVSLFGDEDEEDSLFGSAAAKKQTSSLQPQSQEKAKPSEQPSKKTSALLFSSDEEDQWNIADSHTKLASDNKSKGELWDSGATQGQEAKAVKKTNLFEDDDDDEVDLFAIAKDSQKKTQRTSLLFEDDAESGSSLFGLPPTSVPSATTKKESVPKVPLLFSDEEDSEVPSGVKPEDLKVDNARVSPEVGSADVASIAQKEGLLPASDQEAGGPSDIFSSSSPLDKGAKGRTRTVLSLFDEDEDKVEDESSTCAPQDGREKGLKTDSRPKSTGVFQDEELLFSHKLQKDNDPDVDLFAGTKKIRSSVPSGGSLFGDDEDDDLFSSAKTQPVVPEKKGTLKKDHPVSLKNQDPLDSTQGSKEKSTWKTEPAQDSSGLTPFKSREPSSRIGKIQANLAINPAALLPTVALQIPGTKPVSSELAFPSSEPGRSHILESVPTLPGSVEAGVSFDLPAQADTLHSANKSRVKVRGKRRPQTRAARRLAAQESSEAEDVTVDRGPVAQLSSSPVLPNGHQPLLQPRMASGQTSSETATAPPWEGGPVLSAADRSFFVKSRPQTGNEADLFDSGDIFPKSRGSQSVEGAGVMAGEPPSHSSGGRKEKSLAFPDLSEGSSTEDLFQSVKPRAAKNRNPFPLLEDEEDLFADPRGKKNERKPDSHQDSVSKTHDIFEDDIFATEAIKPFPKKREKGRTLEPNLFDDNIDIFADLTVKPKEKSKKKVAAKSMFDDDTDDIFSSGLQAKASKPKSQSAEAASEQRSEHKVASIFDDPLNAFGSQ
UniProt Q7TMY8: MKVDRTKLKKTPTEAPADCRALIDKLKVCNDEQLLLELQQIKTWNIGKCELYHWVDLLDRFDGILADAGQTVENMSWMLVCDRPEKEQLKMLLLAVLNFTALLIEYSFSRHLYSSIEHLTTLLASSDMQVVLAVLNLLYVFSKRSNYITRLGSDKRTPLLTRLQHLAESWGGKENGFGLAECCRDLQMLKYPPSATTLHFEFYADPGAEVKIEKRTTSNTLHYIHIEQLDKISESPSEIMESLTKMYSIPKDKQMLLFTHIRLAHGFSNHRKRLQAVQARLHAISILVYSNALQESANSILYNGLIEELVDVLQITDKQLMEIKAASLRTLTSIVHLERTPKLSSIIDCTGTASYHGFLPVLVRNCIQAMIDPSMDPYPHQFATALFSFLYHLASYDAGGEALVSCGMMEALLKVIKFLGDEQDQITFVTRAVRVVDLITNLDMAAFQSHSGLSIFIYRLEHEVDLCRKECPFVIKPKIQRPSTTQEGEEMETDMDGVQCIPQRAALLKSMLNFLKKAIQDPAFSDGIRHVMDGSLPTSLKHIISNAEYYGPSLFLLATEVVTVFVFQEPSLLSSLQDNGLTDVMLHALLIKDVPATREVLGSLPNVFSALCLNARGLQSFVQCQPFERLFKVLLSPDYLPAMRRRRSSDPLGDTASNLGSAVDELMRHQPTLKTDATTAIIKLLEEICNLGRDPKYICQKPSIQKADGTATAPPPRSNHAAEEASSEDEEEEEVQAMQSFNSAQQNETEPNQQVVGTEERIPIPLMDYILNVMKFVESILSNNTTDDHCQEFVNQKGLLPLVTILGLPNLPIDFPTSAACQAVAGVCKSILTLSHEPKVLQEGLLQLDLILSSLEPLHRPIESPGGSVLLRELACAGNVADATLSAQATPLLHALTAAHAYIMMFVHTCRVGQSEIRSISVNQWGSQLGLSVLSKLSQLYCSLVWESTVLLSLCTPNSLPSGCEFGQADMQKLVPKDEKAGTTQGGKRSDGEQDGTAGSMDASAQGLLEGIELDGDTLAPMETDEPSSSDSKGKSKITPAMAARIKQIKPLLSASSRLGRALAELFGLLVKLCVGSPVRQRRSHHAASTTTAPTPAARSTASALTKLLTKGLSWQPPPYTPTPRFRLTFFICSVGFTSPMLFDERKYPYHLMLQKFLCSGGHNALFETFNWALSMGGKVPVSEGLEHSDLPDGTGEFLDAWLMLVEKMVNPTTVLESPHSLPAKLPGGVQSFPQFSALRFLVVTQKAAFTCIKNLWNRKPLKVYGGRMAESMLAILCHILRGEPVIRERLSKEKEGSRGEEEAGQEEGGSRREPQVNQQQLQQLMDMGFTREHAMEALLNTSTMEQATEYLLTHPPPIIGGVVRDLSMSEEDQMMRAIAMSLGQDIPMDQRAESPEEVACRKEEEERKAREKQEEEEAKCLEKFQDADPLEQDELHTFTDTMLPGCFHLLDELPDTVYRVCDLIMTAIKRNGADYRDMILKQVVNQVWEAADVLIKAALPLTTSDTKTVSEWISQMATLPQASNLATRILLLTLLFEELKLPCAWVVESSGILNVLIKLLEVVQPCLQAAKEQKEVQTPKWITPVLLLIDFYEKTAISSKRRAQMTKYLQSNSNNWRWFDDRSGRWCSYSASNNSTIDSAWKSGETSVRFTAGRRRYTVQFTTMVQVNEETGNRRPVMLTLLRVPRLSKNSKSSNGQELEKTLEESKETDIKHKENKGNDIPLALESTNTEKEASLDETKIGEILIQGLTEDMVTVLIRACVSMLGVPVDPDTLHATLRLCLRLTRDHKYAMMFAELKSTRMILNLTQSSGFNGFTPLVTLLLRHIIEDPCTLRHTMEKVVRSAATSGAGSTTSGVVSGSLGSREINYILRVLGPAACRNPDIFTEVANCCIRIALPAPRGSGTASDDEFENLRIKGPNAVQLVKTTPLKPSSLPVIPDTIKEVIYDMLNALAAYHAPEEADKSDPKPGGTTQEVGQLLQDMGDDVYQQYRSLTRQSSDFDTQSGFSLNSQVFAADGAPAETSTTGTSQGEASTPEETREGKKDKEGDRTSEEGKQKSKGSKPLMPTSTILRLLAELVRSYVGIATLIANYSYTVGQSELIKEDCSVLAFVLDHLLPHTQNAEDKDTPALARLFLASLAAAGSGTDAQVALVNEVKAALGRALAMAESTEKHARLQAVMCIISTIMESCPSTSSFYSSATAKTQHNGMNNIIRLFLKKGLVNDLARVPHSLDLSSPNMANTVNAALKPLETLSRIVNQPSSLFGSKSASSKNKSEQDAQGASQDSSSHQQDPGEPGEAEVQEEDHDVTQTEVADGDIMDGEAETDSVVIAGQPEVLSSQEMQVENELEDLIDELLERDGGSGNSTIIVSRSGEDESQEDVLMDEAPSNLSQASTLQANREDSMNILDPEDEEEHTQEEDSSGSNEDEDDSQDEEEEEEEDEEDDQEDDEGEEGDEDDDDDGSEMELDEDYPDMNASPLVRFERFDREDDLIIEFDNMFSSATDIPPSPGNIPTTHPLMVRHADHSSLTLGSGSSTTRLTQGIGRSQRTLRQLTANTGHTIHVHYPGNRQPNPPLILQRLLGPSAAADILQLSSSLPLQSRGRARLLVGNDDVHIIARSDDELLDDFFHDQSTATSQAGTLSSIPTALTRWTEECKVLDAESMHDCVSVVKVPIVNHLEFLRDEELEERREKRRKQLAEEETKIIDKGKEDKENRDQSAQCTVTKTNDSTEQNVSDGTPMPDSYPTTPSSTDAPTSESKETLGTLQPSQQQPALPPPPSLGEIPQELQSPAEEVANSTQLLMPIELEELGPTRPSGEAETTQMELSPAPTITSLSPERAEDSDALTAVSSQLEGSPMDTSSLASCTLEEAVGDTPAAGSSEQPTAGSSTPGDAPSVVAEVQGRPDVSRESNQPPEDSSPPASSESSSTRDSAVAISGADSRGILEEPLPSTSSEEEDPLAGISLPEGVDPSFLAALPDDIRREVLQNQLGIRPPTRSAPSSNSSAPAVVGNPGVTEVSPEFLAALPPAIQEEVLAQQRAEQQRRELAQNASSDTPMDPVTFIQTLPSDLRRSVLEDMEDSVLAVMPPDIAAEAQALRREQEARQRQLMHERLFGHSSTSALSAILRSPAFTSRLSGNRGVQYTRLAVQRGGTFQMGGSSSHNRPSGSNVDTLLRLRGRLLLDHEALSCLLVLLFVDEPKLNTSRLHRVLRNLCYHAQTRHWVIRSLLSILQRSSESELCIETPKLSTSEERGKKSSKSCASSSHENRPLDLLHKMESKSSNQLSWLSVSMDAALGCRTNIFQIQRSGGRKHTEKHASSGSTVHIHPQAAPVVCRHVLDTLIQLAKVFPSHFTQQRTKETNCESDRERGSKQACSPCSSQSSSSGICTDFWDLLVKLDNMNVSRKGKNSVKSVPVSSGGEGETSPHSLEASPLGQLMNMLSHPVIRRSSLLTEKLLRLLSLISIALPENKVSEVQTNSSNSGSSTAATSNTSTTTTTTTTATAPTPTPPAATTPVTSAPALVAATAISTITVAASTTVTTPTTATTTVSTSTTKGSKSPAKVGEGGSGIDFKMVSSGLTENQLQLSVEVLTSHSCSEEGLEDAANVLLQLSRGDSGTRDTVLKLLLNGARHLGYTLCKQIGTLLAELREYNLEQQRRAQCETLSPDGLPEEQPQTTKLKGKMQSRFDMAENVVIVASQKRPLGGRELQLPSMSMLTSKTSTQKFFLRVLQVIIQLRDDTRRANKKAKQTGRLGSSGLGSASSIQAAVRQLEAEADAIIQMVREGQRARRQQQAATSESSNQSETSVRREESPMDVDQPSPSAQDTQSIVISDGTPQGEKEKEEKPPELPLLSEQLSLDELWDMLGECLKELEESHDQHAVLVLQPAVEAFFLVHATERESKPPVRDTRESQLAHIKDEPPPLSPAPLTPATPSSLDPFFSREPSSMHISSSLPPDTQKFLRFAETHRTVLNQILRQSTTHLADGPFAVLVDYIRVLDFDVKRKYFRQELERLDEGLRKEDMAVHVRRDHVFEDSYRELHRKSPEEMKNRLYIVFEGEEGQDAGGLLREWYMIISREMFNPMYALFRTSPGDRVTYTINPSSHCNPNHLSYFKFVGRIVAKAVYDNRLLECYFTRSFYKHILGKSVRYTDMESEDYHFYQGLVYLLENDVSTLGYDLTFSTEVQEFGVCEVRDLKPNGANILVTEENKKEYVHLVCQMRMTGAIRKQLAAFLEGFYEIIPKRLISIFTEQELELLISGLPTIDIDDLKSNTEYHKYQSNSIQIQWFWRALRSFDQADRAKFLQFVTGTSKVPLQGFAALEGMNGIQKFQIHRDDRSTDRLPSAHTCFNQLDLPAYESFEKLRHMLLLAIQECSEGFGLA
UniProt Q78RX3: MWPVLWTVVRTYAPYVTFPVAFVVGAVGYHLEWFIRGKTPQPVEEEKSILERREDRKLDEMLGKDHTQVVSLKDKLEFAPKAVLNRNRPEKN
UniProt Q80VP5: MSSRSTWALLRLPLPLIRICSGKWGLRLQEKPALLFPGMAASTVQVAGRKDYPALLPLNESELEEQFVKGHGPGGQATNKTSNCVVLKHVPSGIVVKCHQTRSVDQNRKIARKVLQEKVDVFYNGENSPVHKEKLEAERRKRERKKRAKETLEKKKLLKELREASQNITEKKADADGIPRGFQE
UniProt Q78J03: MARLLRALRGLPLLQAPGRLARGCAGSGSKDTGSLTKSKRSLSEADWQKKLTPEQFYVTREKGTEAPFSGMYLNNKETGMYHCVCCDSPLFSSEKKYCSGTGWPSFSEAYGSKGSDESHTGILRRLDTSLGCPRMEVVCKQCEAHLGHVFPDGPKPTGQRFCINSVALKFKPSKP

| Target | log2 fold change of pooled soluble protein |
| --- | --- |
| UniProt Q6PDE7 | 0.0484 |
| UniProt Q80XU3 | -0.306 |
| UniProt Q6PB44 | -0.288 |
| UniProt Q8BG81 | 0.0553 |
| UniProt Q78IK2 | -0.268 |
| UniProt Q6P6M5 | -0.122 |
| UniProt Q80WC7 | -0.00619 |
| UniProt Q6PGL7 | -0.0357 |
| UniProt Q811L6 | 0.0541 |
| UniProt Q80VP1 | -0.042 |
| UniProt Q78ZA7 | -0.00855 |
| UniProt Q6P542 | -0.0917 |
| UniProt Q80TY0 | 0.0781 |
| UniProt Q80TA6 | -0.0545 |
| UniProt Q7TMY8 | -0.0202 |
| UniProt Q6NZJ6 | 0.0175 |
| UniProt Q80YR5 | -0.0329 |
| UniProt Q7TNV0 | -0.0163 |

| Target | log2 fold change of pooled soluble protein |
| --- | --- |
| UniProt Q6PD21 | 0.262 |
| UniProt Q78RX3 | -0.179 |
| UniProt Q70FJ1 | -0.135 |
| UniProt Q6TEK5 | 0.0379 |
| UniProt Q6ZPJ0 | -0.136 |
| UniProt Q6R891 | -0.0114 |
| UniProt Q8BGQ7 | -0.00486 |
| UniProt Q6Q477 | -0.136 |
| UniProt Q6PEV3 | -0.0973 |
| UniProt Q80VP5 | -0.0161 |
| UniProt Q6PAL7 | -0.102 |
| UniProt Q8BG07 | -0.0887 |
| UniProt Q7TNC4 | 0.201 |
| UniProt Q78J03 | 0.103 |
| UniProt Q6RHR9 | -0.00569 |
| UniProt Q6P1H6 | 0.0788 |
| UniProt Q80XP8 | 0.103 |

Individual results from above:
log2 fold change of pooled soluble protein, UniProt Q6PGL7 is entered as -0.0357
log2 fold change of pooled soluble protein, UniProt Q6PDE7 is entered as 0.0484
log2 fold change of pooled soluble protein, UniProt Q7TNC4 is entered as 0.201

— the supplement of paper PMC12819154, “High-throughput peptide-centric local stability assay extends protein–ligand identification to membrane proteins, tissues and bacteria” (Nature Structural & Molecular Biology, 2025)
